No constants are given. Whether binding was seen depends on the method and setting. Some binding calls cover weakened binding; strength is not graded here.
Tests used:
[1] = biological target: T1, Staphylococcus aureus zinc-containing macrodomain (SauMacro) (Staphylococcus aureus) (UniProt P67343); assay: SEC; analytical SEC, Superdex 200 Increase 10/300 GL; proteins alone or as 1:1.2 M mixture (50 μM SauMacro, 60 μM SauGcvH-L) in TZNK/D buffer (50 mM TrisHCl pH 8, 150 mM KCl, 12 mM NaCl, 100 μM zinc acetate, 2 mM MgCl2, 5 mM DTT); fractions analysed by immunoblot; both purified
T1 sequence: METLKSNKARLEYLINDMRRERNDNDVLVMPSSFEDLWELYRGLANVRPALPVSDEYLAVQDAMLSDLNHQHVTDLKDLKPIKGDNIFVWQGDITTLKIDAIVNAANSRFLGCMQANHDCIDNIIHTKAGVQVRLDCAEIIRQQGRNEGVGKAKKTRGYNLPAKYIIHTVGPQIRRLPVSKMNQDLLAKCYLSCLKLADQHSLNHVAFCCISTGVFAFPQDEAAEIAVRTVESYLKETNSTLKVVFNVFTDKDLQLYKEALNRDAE

Amino acid sequences for entries named in this document (tags omitted).
UniProt P0DN70: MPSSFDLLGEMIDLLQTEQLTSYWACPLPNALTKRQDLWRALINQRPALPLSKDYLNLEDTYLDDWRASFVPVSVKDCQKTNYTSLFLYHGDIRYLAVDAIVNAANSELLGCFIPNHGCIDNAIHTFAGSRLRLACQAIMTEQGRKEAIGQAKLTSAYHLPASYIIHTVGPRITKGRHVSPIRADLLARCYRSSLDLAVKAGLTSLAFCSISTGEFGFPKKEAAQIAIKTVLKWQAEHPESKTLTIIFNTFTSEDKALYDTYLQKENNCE
UniProt A0A0H3JT43: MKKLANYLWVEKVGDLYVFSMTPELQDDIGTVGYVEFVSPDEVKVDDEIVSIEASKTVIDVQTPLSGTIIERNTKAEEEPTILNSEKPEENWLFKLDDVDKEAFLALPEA

[2] = biological target: Streptococcus pyogenes zinc-containing macrodomain (SpyMacro) (Streptococcus pyogenes) (UniProt P0DN70); assay: SAXS (SEC-SAXS); both purified
[3] = biological target: Streptococcus pyogenes zinc-containing macrodomain (SpyMacro) (Streptococcus pyogenes) (UniProt P0DN70); assay: SAXS (SEC-SAXS); SpyMacro and lipoyl-SpyGcvH-L alone or as 1:1.2 M complex; Shodex KW402.5-4F column in SAXS buffer (25 mM TrisHCl pH 8, 150 mM NaCl, 2.5 mM TCEP, 3% glycerol); scatter compared with the AlphaFold 3 model of the complex; both purified

Staphylococcus aureus zinc-containing macrodomain (SauMacro) (from UniProt P67343 1-266) (enzyme)
binding [1]: no binding (tested: 50 μM)

Streptococcus pyogenes zinc-containing macrodomain (SpyMacro) (from UniProt P0DN70 1-270) (enzyme)
binding [2]: no binding

lipoylated Staphylococcus aureus glycine cleavage system H-like protein (lipoyl-SauGcvH-L) (from UniProt A0A0H3JT43 1-110)
binding [1]: binds

B1: lipoylated Streptococcus pyogenes glycine cleavage system H-like protein (lipoyl-SpyGcvH-L) (protein, UniProt P0DN69 1-110)
chain: MKKIANYLLIEKTDDRYTISMTPELQDDIGTIGYAEFTDNDHLAVDDIILNLEASKTVMSVLSPLAGAVVERNEAATLTPTLLNSEKAEENWIVVLTDVDQAAFDALEDA
modifications: lipoyl-lysine at Lys56 (lipoylated in vivo)
binding [3]: binds

Reference: article PMC11490716, “Evolutionary and molecular basis of ADP-ribosylation reversal by zinc-dependent macrodomains” (The Journal of Biological Chemistry, 2024)
